No constants are given. Whether binding was seen depends on the method and setting. Some results given as binding are weak or reduced against the parent protein; the word gives no strength.
Biological target: T1, Juno (UniProt Q9EQF4 20-222)
T1 chain: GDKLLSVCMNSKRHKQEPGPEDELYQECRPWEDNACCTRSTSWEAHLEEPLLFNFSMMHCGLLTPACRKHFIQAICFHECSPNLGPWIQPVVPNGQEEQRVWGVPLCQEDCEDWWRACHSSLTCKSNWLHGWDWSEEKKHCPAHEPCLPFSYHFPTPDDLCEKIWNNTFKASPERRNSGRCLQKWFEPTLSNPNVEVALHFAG
Experiment: MST; microscale thermophoresis of Juno with the Izumo1 ectodomain or Izumo1 peptides; n ≥ 3; conditions are in the supplement, not shown; both purified

binding: binds
B1: Izumo1 ectodomain (domain or fragment)
chain: CIKCDQFVTDALKTFENTYLNDHLPHDIHKNVMRMVNHEVSSFGVVTSAEDSYLGAVDENTLEQATWSFLKDLKRITDSDLKGELFIKELLWMLRHQKDIFNNLARQFQKEVLCPNKCGVMSQTLIWCLKCEKQLHICRKSLDCGERHIEVHRSEDLVLDCLLSWHRASKGLTDYSFYRVWENSSETLIAKGKEPYLTKSMVGPEDAGNYRCVLDTINQGHATVIRYDVTVLPPKHSEENQPPNIITQEEHETPVHVTPQTPPGQEPESELYPELHPELYPELIPTVAQNPEKKMKTR
modifications: N-acetylglucosamine attached to N204 (seen in the crystal structure)

Reference: PMC4963209 (2016)
